According to publication PMC3335088 (PLoS ONE, 2012):

Tests used:
[1] = molecular target: T1, MCM4 with 6-His tag in combination with a StrepII tag (UniProt P33991); assay: pull-down; co-expression in High Five insect cells; lysis in 50-100 mM Tris-HCl pH 8.0, 150 mM NaCl, 5% glycerol, 0.5% Triton X-100; tagged protein recovered on Ni-NTA, anti-FLAG M2, anti-HA or StrepT-actin resin, 1 hr at 4°C; washes with 300 mM NaCl; Coomassie staining and Western blot
T1 sequence: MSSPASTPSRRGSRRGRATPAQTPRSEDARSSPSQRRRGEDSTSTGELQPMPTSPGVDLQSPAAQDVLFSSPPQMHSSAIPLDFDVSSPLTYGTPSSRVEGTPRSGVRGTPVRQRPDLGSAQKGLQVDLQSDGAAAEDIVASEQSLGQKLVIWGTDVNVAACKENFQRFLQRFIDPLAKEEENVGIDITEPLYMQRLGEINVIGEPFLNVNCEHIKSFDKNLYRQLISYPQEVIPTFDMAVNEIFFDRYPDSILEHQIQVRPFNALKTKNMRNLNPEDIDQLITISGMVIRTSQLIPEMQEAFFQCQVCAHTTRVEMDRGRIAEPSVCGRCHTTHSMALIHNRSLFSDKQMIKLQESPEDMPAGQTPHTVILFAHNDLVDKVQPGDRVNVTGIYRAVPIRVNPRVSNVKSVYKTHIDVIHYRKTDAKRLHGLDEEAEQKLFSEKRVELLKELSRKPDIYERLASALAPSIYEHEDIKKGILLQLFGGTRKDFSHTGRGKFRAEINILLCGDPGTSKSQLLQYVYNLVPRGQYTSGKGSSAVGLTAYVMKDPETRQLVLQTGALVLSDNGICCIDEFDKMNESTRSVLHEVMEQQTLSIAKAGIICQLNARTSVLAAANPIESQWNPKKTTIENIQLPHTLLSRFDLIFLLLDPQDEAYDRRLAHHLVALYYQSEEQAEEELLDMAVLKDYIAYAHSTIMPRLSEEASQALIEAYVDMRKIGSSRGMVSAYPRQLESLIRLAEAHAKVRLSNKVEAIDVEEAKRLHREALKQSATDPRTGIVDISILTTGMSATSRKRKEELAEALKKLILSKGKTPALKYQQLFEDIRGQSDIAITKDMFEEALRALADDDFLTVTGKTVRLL

[2] = molecular target: T2, MCM6 with 6-His tag in combination with a HA tag (human) (UniProt Q14566); assay: as above
T2 sequence: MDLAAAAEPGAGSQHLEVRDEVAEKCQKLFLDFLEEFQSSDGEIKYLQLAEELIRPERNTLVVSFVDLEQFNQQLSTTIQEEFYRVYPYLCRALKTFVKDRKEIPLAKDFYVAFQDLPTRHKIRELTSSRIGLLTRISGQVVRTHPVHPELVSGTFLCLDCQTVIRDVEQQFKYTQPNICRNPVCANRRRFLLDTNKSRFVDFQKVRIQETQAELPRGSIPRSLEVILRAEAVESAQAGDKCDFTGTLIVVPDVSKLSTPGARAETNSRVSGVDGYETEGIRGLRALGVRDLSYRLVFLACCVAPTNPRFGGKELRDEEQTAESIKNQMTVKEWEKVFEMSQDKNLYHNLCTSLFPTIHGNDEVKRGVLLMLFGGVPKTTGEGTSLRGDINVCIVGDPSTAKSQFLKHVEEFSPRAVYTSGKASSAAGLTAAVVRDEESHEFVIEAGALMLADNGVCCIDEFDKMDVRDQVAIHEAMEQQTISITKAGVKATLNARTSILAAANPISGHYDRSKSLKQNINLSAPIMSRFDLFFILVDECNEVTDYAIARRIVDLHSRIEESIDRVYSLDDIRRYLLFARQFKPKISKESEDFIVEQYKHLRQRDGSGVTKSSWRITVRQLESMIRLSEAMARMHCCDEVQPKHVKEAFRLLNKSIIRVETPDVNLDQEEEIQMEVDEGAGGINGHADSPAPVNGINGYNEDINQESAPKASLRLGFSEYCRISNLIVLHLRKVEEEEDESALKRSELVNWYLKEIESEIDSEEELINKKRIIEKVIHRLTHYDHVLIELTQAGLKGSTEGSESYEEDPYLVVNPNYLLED

- binding [1]: binds
- binding [2]: binds
Substance: endogenous insect MCM-BP

Results are given in words; binding and its absence hold for the method and conditions named. In cells and extracts the contact can be indirect. Binding can be weak; no strength is given. Sequences can lack the tags named with a protein.
